Laboratory results from paper PMC8339129.
Results are given in words; binding and its absence hold for the method and conditions named. Binding seen in cells or lysates may run through a third protein. Some entries that bind do so weakly or less than the wild type. For part of these data: Where a sequence is shown, tags or fusion partners need not be part of it.

The chains behind the UniProt entries cited, without tags or fusion partners.
UniProt Q62463: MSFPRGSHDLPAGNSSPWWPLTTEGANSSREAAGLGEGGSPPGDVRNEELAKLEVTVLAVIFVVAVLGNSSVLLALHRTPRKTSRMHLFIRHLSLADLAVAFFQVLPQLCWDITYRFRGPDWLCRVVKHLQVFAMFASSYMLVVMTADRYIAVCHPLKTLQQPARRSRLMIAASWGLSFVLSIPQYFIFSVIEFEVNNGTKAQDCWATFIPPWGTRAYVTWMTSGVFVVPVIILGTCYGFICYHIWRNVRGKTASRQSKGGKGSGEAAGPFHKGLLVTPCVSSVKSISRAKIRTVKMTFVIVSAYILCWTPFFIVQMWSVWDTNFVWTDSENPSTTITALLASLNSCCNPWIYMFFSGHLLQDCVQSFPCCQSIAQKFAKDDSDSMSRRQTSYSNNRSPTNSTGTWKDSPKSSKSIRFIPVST
UniProt P42866: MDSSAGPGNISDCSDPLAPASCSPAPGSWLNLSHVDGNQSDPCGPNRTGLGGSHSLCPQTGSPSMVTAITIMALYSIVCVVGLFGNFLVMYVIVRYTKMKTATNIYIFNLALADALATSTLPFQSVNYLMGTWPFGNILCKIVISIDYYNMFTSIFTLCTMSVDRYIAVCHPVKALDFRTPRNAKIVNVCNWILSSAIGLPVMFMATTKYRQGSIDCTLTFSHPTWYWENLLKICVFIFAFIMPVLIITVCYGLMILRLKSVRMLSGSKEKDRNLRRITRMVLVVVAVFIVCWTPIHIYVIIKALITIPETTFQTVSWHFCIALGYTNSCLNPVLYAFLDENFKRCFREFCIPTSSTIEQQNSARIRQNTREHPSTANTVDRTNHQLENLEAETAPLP
UniProt Q91YI4: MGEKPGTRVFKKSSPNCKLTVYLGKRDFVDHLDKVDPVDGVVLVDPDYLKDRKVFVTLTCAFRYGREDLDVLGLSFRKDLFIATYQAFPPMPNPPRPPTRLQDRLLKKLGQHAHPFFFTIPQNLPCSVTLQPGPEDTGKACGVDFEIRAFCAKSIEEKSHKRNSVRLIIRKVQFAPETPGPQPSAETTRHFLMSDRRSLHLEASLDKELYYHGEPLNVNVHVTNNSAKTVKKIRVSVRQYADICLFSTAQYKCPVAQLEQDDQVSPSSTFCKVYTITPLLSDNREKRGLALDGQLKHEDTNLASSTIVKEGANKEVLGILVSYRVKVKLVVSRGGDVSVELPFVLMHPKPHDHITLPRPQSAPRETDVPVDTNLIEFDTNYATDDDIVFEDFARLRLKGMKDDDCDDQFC

Key:
V1b-Venus (mouse) = target: T1, V1b-Venus (mouse) (UniProt Q9WU02); assay: FRET or BRET; NanoBRET in HEK cells co-transfected with receptor-Nluc (donor) and receptor- or channel-Venus (acceptor) at different ratios (1:0.08–39), without agonist; BRETeff = BRET/BRETmax with μ-Venus-Nluc as BRETmax
T1 sequence: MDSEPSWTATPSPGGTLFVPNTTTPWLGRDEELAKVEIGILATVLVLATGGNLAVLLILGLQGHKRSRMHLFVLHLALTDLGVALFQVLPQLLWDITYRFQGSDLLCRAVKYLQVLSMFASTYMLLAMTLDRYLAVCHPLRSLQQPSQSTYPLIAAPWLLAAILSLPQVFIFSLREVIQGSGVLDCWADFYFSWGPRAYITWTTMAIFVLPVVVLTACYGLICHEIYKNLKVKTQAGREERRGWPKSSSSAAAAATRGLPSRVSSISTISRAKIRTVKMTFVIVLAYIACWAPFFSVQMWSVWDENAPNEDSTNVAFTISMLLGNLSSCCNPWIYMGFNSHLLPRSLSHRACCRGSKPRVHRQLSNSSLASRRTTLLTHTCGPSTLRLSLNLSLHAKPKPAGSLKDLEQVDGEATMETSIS

V1a-Nluc (mouse) = V1a-Nluc (mouse) (UniProt Q62463); assay: FRET or BRET; NanoBRET in HEK cells co-transfected with receptor-Nluc (donor) and β-arrestin 2-Venus (acceptor); without agonist or with AVP for 5 min at ambient temperature; assay buffer with 137 mM NaCl, 10 mM HEPES pH 7.4; ratio of light at 530/480 nm; amounts of receptor plasmid varied
V1b-Nluc (mouse) = target: T2, V1b-Nluc (mouse) (UniProt Q9WU02); assay: as above
T2 sequence: T1 sequence

[1] = target: heteromeric μ-V1b receptor (V1b-LgBit plus μ-SmBit) (mouse) (UniProt Q9WU02+P42866); assay: split reporter + FRET or BRET; NanoBit-NanoBRET in HEK cells co-transfected with receptor-LgBit, receptor-SmBit (reconstituted split Nluc as donor) and β-arrestin 2-Venus (acceptor); without agonist or with AVP and/or DAMGO for 5 min at ambient temperature; ratio of light at 530/480 nm; amounts of plasmid varied
[2] = target: heteromeric μ-V1b receptor (V1b-SmBit plus μ-LgBit) (mouse) (UniProt Q9WU02+P42866); assay: as above
[3] = target: μ-opioid receptor fused to LgBit or SmBit (mouse) (UniProt P42866); assay: split reporter; NanoBit luminescence of HEK cells co-expressing receptor-LgBit and receptor-SmBit, without β-arrestin 2-Venus; luminescence averaged over five min
[4] = target: V1a receptor fused to LgBit or SmBit (mouse) (UniProt Q62463); assay: split reporter; NanoBit luminescence of a membrane fraction prepared from cells expressing the V1a receptor fused to split Nluc, after addition of the substrate
[5] = target: V1a receptor fused to LgBit or SmBit (mouse) (UniProt Q62463); assay: split reporter; NanoBit luminescence of HEK cells co-expressing receptor-LgBit and receptor-SmBit, without β-arrestin 2-Venus; luminescence averaged over five min
[6] = target: V1b receptor fused to LgBit or SmBit (mouse) (UniProt Q9WU02); assay: as above

μ-Nluc (from UniProt P42866 1-398) (receptor)
binding (V1b-Venus (mouse)): binds

β-arrestin 2-Venus (from UniProt Q91YI4 1-410)
binding (V1a-Nluc (mouse)): binds | binding (V1b-Nluc (mouse)): binds | binding [1]: binds | binding [2]: binds

μ-opioid receptor fused to LgBit or SmBit (from UniProt P42866 1-398)
binding [3]: binds

V1a receptor fused to LgBit or SmBit (from UniProt Q62463 1-423)
binding [4]: binds | binding [5]: binds

B1: V1b receptor fused to LgBit or SmBit (receptor, UniProt Q9WU02 1-421)
chain: T1 sequence
binding [6]: binds
